Values from PubChem BioAssay AID602196 (INSERM, 2012)
The deposit covers about 23,000 reagents; below is a part drawn at random. Over the whole deposit, 455 (2%) got an active call. 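Active includes both protection and sensitisation; some change values fall well beyond the stated -50 to +50 range.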 Unmarked entries are inactive. Further read-outs or replicates are left out here. The record does not give: the amount of reagent.

- Test: 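Modifiers of cisplatin sensitivity in A549 cells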
- System: human A549 lung cancer cells
- Reagents: siRNA pair against human genes
- Timing: 48 h transfection before cisplatin; time from cisplatin to read-out not stated
- Challenge: cisplatin at a dose killing half of control-siRNA cells; exact dose and duration not given
- Measured: 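Shift in cisplatin death relative to control siRNA, from -50 (all cells die) to +50 (no cells die); siRNAs harmful on their own scored 0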
- Reading the numbers: two-siRNA summed score (-2 to +2): higher = both siRNAs protect from cisplatin killing; -2 means both sensitise
- Rule for the call: 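siRNAs harmful alone (LDH or WST-1) get 0; others get +1 for less and -1 for more cisplatin killing; genes are active when the two siRNAs give the same sign, summing to ±2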
- Calls: active = both siRNAs shift cisplatin killing the same way; inactive = no consistent shift, or siRNA harmful alone

target | two-siRNA summed score (-2 to +2)
PCSK1 | 1
DSC1 | 0
GJB2 | 0
LOC388205 | 1
DSTN | 1
CD82 | 0
EXD1 | 0
LOC391764 (retired record) | 0
C19orf84 | 0
LOC92235 | -1
GRK5 | 0
TNFRSF18 | 0
NEK1 | 0
HTRA2 | 0
TAS2R10 | 0
RAD23A | 0
TM9SF1 | 0
MRPL34 | 0
IRX1 | 0
TMEM200B | 1
AQP12A | 0
USP38 | 0
ZNF611 | 0
LOC439985 | 0
TUBB | 0
R3HDML | 0
CCNH | 0
GABARAPL2 | 1
LOC388629 | 0
TTTY5 | 0
LOC440996 | 0
LOC284890 | 0
GBP1 | 0
RPF1 | 0
ACAA2 | 0
LOC338661 | 0
LOC442386 | 1
NOP9 | 0
MOGAT2 | 0
LINC02209 | 0
NDUFS1 | 0
ANKRD30BP3 | 1
MGAT1 | 0
PLEKHG7 | 1
NMRAL2P | 0
FLJ41327 (retired record) | 1
MARK1 | 0
TRMO | 0
PKP1 | 0
LOC402244 | -1
IGSF22 | 0
GARIN4 | 0
LOC283480 | 0
GALNT17 | 0
CBLN2 | -1
NCOA5 | 0
AFG1L | 1
